Data taken from article PMC7913777, “Allosteric effects of SSB C-terminal tail on assembly of E. coli RecOR proteins” (Nucleic Acids Research, 2021).
These are yes or no findings as the source states them, for the method shown. Some binding calls cover weakened binding; strength is not graded here. One block for each binder: values may come before it.

Legend:
[1] = biological target: T1, Escherichia coli RecR protein (E. coli) (UniProt P0A7H6); assay: condition: P15 (50 μM) titrated into RecR (8 μM monomer); ITC; blank titration: P15 (50 μM) titrated into RecR alone (8 μM monomer), buffer BTP, pH 8.0, 25°C; both purified
T1 sequence: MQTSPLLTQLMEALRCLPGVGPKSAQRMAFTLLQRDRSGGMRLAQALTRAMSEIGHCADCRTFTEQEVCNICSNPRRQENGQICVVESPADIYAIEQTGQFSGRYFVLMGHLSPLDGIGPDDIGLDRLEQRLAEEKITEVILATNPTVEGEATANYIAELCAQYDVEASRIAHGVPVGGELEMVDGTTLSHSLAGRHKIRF

E. coli RecR tetramer = biological target: T2, E. coli RecR tetramer (E. coli, UniProt P0A7H6 1-201); assay: AUC; sedimentation velocity, RecR (2 μM monomer) with excess RecO (4 and 6 μM) and P15 (24 and 36 μM, 6-fold over RecO), buffer BTP (pH 8.0), 25°C; both purified
T2 construct: RecR, E. coli; tetramer 87.8 kDa; Same preparation as m2; the tetrameric state, which is the one found in complexes with RecO; also called RecR4; R4; source: E. coli BL21 Rosetta 2(DE3)pLysS, purified (Ni-NTA)
T2 sequence (looked up): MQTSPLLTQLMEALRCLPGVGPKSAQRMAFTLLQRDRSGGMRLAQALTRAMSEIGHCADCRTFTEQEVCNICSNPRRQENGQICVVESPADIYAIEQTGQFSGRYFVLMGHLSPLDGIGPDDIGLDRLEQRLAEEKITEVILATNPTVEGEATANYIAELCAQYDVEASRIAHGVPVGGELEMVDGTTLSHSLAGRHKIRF

[2] = biological target: T3, Escherichia coli RecO protein (E. coli, UniProt P0A7H3 1-242); assay: AUC; sedimentation velocity of RecO alone, 1.5-8 μM, buffer BTP (pH 8.0), 25°C, 42 000 rpm, 230 nm; both purified
T3 chain: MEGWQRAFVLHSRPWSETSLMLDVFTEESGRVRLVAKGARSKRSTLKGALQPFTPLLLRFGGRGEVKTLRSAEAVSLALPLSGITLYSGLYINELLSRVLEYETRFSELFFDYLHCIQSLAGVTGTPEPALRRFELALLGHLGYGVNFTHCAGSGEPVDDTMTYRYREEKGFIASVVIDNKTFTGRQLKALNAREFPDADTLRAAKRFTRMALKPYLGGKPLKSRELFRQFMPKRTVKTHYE

[3] = biological target: T3, Escherichia coli RecO protein; assay: AUC; sedimentation equilibrium of RecO alone, 4 μM, buffer BTP (pH 8.0), 25°C, 20 000, 25 000 and 30 000 rpm; one-species model; both purified

B1: P15 peptide (the 15 C-terminal amino acids of E. coli SSB) (peptide)
peptide: PSNEPPMDFDDDIPF
notes: the 15 C-terminal amino acids of E. coli SSB; also called SSB-Ct peptide; SSB C-terminal acidic tip peptide; source: bought: WatsonBio
binding [1]: no binding

B2: RecO–P15 complex (complex, E. coli)
chain: MEGWQRAFVLHSRPWSETSLMLDVFTEESGRVRLVAKGARSKRSTLKGALQPFTPLLLRFGGRGEVKTLRSAEAVSLALPLSGITLYSGLYINELLSRVLEYETRFSELFFDYLHCIQSLAGVTGTPEPALRRFELALLGHLGYGVNFTHCAGSGEPVDDTMTYRYREEKGFIASVVIDNKTFTGRQLKALNAREFPDADTLRAAKRFTRMALKPYLGGKPLKSRELFRQFMPKRTVKTHYE
peptide: PSNEPPMDFDDDIPF
notes: RecO, E. coli; as m1; the 15 C-terminal amino acids of E. coli SSB; as m3; 29.1 kDa; also called RecO in the presence of a 6-fold molar excess of P15; source: RecO from E. coli BL21(DE3)pLysS, purified; P15 bought: WatsonBio; mixed with a six-fold molar excess of P15 over RecO; copies: 1 + 1
binding (E. coli RecR tetramer): binds

binding [2]: no binding (tested: 8 μM)
binding [3]: no binding (tested: 4 μM)
B3: Escherichia coli RecO protein (protein, UniProt P0A7H3 1-242)
chain: MEGWQRAFVLHSRPWSETSLMLDVFTEESGRVRLVAKGARSKRSTLKGALQPFTPLLLRFGGRGEVKTLRSAEAVSLALPLSGITLYSGLYINELLSRVLEYETRFSELFFDYLHCIQSLAGVTGTPEPALRRFELALLGHLGYGVNFTHCAGSGEPVDDTMTYRYREEKGFIASVVIDNKTFTGRQLKALNAREFPDADTLRAAKRFTRMALKPYLGGKPLKSRELFRQFMPKRTVKTHYE
